Literature values as cited in patent publication US20060021470A1, “Compositions for enhancing biological functions in organisms” (priority 2004, published 2006).
For at least one compound, name, drawing or mass did not settle the structure.

System: Rhizoctonia solani
Settings: confrontation of T. atroviride with R. solani; cited from earlier work

Structure (SMILES): CC(=O)N[C@H]1[C@H](O[C@H]2[C@@H](O)[C@@H](NC(C)=O)[C@H](O[C@H]3[C@H](O)[C@H]4N=C(N(C)C)O[C@H]4[C@@H]3CO)O[C@@H]2CO)O[C@H](CO)[C@@H](O)[C@H]1O [allosamidin]
- inhibition of R. solani growth during confrontation: reduced
